Results: PMC9216541 (PLoS ONE, 2022)

Assays:
[1] = tested on: peptide 4 (stapled Nrf2-derived); assay: EMSA; details: EMSA: 10 mM Tris pH 7.5, 100 mM KCl, 2 mM MgCl2, 0.5 mM EDTA, 10 ug/mL BSA, 0.1 mM DTT, 2.5% glycerol, 30 min RT, gel at 4 C; protein details: hydrocarbon staple; label: 5'-6FAM on strand 1
[2] = tested on: peptide 5 (linear Nrf2-derived); assay: EMSA; details: EMSA: 10 mM Tris pH 7.5, 100 mM KCl, 2 mM MgCl2, 0.5 mM EDTA, 10 ug/mL BSA, 0.1 mM DTT, 2.5% glycerol, 30 min RT, gel at 4 C; label: 5'-6FAM on strand 1
[3] = tested on: peptide 4 (stapled Nrf2-derived); assay: fluorescence polarization; details: FP: 50 mM Tris/HCl pH 7.5, 100 mM NaCl, 2 mM MgCl2, 0.5 mM EDTA, 10 ug/mL BSA, 0.1 mM DTT, 0.01% Tween-20, 10 nM DNA, 60 min RT; protein details: hydrocarbon staple; label: 5'-6FAM on strand 1

Sequence | binding result [1] | binding result [2] | binding result [3]
CGGAATCAATGACTCATTGTTACTC (double strand) [MARE23] | binds | binds more weakly | 
CGGAATATCGTCATAGCTATTACTC (double strand) [MARE23_scrambled] | binds |  | binds
CGGAATGCAATAAGTTACGTTACTC (double strand) [randomized sequence DNA] | binds |  | 

The exact form of at least one protein or probe is not confirmed. For some assays here: A weaker result is weaker than the reference pair of the same experiment. For some assays here: At least one verdict was read from the data and is not stated in words by the source.
